The record followed here is article PMC12609441, “Comparative Preclinical Evaluation of the Tumor-Targeting Properties of Radioiodine and Technetium-Labeled Designed Ankyrin Repeat Proteins for Imaging of Epidermal Growth Factor Receptor Expression in Malignant Tumors” (International Journal of Molecular Sciences, 2025).

Results are given in words; binding and its absence hold for the method and conditions named. Some binding calls cover weakened binding; strength is not graded here.

In experiment [1] the target is epidermal growth factor receptor (EGFR) (human (endogenous in A-431, DU-145, U-87 MG, PC-3)) (UniProt P00533). The experiment in a line: radioligand binding; cellular processing on A-431 cells, continuous incubation with 5 nM radiolabeled DARPin at 37 °C for 1, 2, 4, 6 and 24 h; acid wash (0.2 M glycine, 4 M urea, pH 2.0) to separate membrane-bound and internalized activity; only the binder purified.

For experiment [2] the target is unchanged. The experiment in a line: radioligand binding; binding specificity test on living EGFR-expressing cells (A-431, DU-145, U-87 MG, PC-3); 5 nM radiolabeled DARPin, 1 h at 37 °C; control dishes pre-saturated for 30 min with 100-fold molar excess of unlabeled (HE)3-E01 or cetuximab; cell-associated activity by gamma counter; only the binder ….
Experiment [3] has the same target. Put plainly: radioligand binding; saturation assay on living A-431 cells; eight concentrations of radiolabeled protein 0.22 to 40 nM, 4 h at 4 °C; nonspecific binding with 50-fold molar excess of unlabeled (HE)3-E01; nonlinear regression; only the binder purified.

B1: [^99mTc]Tc-(HE)3-E01 (designed binder)
chain: MRGSHEHEHEGSDLGKKLLEAARAGQDDEVRILMANGADVNADDTWGWTPLHLAAYQGHLEIVEVLLKNGADVNAYDYIGWTPLHLAADGHLEIVEVLLKNGADVNASDYIGDTPLHLAAHNGHLEIVEVLLKHGADVNAQDKFGKTAFDISIDNGNEDLAEILQKLN
modifications: [^99mTc]Tc(CO)3^+ with the (HE)3 tag as a chelator at the N-terminus
notes: DARPin E01 with the N-terminal (HE)3 tag; also called DARPin (HE)3-E01 labeled with [^99mTc]Tc(CO)3; technetium-labeled variant; source: E. coli, purified; labeled with [^99mTc]Tc(CO)3, isolated on NAP-5 size-exclusion column; not shown: (HE)3, N-terminal, kept
Take B1: the binding entry in experiment [1] and in experiment [2] was “binds” each time.

B2: DARPin (HE)3-E01 (unlabeled) (designed binder)
chain: B1 chain
With B2, the binding result in experiment [3] and in experiment [2] was “binds” in each case.
